B1: A5C1 (designed binder)
chain: CQSSQFRCRDNSTCLPLRLRCDGVNDCRDGSDESPALCGRPGPGATSAPAASLQ
B2: pmA2_18 (designed binder)
chain: CPADQFQCKNGSCIPRPLRCDGVEDCADGSDEGQDCGRPGPGATSAPAASLQ

Amino acid sequences for entries named in this document (tags omitted). Residues count along the entry.
UniProt P29965, residues 113-261: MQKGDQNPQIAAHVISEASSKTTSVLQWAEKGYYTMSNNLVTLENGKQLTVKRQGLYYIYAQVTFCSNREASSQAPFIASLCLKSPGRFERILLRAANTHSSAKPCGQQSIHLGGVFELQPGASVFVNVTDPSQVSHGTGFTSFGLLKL

Results are given in words; binding and its absence hold for the method and conditions named. Some results given as binding are weak or reduced against the parent protein; the word gives no strength.

In the assay the target is CD40L (UniProt P29965). The experiment in a line: ELISA, 0.2 µg CD40L per well, expression lysate, anti-HA-HRP, OD 450 nm compared with anti-CD40L 2.2. Background: An ELISA detects its analyte on a solid surface through an enzyme-linked reagent.
For B1, the binding result is recorded as “binds”.

Turning to B2, the binding entry is on record as “binds”.

As for CAPGEFTCGNGHCLSRALRCDGDDGCLDNSDEKNCPQRTSLQ (designed binder) [A1E9], the binding entry is listed as “binds”.

In the case of CLANECTCDSGRCLPLPLVCDGVPDCEDDSDEKNCTKPTSLQ (designed binder) [pmA11_40], the binding entry was “binds”.

Consider CLPSQFPCQNSSICVPPALVCDGDADCGDDSDEASCAPPGSLSLQ (designed binder) [A2F10], for which the binding entry is “binds”.

On to CARDGEFRCAMNGRCIPSSWVCDGEDDCGDGSDESQVYCGGGGSLQ (designed binder) [pmA5_79], for which the binding result is on record as “binds”.

Regarding CRPNQFTCGNGHCLPRTWLCDGVPDCQDSSDETPIPCKSSVPTSLQ (designed binder) [pmA2_84], the binding result is reported as “binds”.
